This is an account of results in publication PMC4326459.

By UniProt entry, the sequences of proteins in these tests, tags left out.
UniProt P12004: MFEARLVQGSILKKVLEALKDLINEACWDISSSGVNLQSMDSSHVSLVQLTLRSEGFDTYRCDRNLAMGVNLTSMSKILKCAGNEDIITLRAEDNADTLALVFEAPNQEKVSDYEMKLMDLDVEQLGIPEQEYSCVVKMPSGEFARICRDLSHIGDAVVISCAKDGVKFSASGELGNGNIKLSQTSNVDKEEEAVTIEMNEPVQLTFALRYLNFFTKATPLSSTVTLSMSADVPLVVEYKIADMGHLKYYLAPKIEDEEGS

Results are given in words; binding and its absence hold for the method and conditions named. Binding seen in cells or lysates may run through a third protein. These calls come from enrichment with a bait or labelling near it, and not all partners need be listed.

For the experiment, the target named is proliferating cell nuclear antigen (PCNA), cytosolic, endogenous in SH-SY5Y cells (human (endogenous in SH-SY5Y)) (UniProt P12004). As to the kind of experiment: affinity purification with mass spectrometry; immunoprecipitation with anti-PCNA antibody from the cytosolic fraction of SH-SY5Y cells; immunoprecipitates identified by LC-MS/MS.

B1: peroxiredoxin-6 (protein, UniProt P30041 1-224)
chain: MPGGLLLGDVAPNFEANTTVGRIRFHDFLGDSWGILFSHPRDFTPVCTTELGRAAKLAPEFAKRNVKLIALSIDSVEDHLAWSKDINAYNCEEPTEKLPFPIIDDRNRELAILLGMLDPAEKDEKGMPVTARVVFVFGPDKKLKLSILYPATTGRNFDEILRVVISLQLTAEKRVATPVDWKDGDSVMVLPTIPEEEAKKLFPKGVFTKELPSGKKYLRYTPQP
As to B1, the binding result is reported as “binds”.
